According to US20190167761A1, “PHARMACEUTICAL COMPOSITION FOR PREVENTING OR TREATING STRESS-RELATED DISEASE, INCLUDING DISC1 PROTEIN OR GENE ENCODING THE SAME” (POSTECH ACADEMY-INDUSTRY FOUNDATION, priority 2017, published 2019):
Results are given in words; binding and its absence hold for the method and conditions named. Some entries that bind do so weakly or less than the wild type.

By UniProt entry, the sequences of proteins in these tests, tags left out.
UniProt P11881: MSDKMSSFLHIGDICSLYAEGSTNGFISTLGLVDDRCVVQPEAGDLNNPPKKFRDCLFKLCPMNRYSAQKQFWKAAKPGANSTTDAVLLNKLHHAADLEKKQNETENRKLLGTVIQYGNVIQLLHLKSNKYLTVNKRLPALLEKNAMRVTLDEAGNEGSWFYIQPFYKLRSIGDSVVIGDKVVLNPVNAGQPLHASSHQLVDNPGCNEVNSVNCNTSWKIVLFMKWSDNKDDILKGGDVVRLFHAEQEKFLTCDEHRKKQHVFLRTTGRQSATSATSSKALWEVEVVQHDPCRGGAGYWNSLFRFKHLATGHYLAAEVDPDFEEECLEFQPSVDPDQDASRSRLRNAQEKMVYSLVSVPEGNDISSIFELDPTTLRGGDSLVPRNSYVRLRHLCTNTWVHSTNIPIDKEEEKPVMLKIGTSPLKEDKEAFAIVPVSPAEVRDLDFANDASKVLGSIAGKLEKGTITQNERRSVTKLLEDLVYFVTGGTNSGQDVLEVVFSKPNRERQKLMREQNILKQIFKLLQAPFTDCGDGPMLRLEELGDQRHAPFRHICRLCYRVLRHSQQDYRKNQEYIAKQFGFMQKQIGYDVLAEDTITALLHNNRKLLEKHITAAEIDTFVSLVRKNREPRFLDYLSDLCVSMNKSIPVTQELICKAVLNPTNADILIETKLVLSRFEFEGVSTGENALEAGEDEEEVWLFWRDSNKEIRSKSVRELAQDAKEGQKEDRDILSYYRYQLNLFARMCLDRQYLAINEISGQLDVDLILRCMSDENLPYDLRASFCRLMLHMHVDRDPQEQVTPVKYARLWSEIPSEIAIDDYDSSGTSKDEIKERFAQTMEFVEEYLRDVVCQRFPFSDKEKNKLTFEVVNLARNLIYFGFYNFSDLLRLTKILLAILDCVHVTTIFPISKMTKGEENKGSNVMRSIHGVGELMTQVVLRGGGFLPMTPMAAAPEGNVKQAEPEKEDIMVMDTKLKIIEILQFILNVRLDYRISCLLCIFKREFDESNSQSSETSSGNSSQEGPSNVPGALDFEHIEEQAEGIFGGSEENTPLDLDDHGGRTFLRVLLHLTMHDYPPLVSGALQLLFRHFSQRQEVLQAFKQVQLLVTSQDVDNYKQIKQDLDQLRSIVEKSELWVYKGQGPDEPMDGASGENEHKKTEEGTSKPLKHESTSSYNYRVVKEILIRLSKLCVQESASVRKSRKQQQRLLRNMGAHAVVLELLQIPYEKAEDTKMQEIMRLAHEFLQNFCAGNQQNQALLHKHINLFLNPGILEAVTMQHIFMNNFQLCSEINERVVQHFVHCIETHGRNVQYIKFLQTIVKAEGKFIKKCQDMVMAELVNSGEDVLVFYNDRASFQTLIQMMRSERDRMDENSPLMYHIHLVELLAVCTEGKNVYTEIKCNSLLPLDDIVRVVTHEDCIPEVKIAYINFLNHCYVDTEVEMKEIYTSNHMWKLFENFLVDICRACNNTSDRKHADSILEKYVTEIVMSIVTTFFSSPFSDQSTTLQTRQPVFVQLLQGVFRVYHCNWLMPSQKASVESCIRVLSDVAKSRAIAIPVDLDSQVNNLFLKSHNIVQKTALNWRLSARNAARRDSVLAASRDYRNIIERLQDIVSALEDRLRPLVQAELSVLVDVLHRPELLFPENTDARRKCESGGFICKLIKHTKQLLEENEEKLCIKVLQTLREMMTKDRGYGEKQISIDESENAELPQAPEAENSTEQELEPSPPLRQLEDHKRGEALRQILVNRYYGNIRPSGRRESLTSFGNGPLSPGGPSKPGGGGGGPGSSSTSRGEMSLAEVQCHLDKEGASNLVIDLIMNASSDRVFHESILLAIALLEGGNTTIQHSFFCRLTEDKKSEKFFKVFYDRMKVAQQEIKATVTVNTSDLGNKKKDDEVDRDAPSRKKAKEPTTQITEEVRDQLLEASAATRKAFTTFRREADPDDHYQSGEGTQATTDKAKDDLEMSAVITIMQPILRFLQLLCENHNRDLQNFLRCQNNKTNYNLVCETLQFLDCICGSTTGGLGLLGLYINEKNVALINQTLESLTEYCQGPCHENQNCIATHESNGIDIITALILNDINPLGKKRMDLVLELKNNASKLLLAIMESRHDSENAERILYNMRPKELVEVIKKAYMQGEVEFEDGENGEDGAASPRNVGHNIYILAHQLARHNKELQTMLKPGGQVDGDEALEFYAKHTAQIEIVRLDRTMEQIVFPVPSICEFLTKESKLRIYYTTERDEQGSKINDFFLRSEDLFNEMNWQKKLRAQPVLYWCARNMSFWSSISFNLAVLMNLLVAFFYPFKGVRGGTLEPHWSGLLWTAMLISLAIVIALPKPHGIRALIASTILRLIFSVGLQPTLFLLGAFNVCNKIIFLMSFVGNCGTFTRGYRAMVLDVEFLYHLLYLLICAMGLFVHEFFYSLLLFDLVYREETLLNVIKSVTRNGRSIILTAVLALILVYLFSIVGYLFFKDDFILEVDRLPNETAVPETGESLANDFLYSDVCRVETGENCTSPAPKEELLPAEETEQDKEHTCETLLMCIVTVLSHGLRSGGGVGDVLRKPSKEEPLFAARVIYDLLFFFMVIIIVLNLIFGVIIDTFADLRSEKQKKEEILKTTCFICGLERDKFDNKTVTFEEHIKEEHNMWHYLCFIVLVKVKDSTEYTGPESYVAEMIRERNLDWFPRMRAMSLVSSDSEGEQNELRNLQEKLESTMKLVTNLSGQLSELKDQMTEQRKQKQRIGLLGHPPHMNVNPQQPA

Biological target: endogenous IP3R1 protein (adult mouse brain) (mouse) (UniProt P11881)
Test: immunoblotting of whole lysates and crude MAM fraction of adult mouse brain (FIG. 2C legend)

binding: binds
B1: endogenous DISC1 protein (adult mouse brain) (protein, UniProt Q811T9 1-852, looked up)
chain: MQGGGPRGAPIHSPSHGADSGHGLPPAVAPQRRRLTRRPGYMRSTAGSGIGFLSPAVGMPHPSSAGLTGQQSQHSQSKAGQCGLDPGSHCQASLVGKPFLKSSLVPAVASEGHLHPAQRSMRKRPVHFAVHSKNDSRQSERLTGSFKPGDSGFWQELLSSDSFKSLAPSLDAPWNKGSRGLKTVKPLASPALNGPADIASLPGFQDTFTSSFSFIQLSLGAAGERGEAEGCLPSREAEPLHQRPQEMAAEASSSDRPHGDPRHLWTFSLHAAPGLADLAQVTRSSSRQSECGTVSSSSSDTGFSSQDASSAGGRGDQGGGWADAHGWHTLLREWEPMLQDYLLSNRRQLEVTSLILKLQKCQEKVVEDGDYDTAETLRQRLEELEQEKGRLSWALPSQQPALRSFLGYLAAQIQVALHGATQRAGSDDPEAPLEGQLRTTAQDSLPASITRRDWLIREKQRLQKEIEALQARMSALEAKEKRLSQELEEQEVLLRWPGCDLMALVAQMSPGQLQEVSKALGETLTSANQAPFQVEPPETLRSLRERTKSLNLAVRELTAQVCSGEKLCSSLRRRLSDLDTRLPALLEAKMLALSGSCFSTAKELTEEIWALSSEREGLEMFLGRLLALSSRNSRRLGIVKEDHLRCRQDLALQDAAHKTRMKANTVKCMEVLEGQLSSCRCPLLGRVWKADLETCQLLMQSLQLQEAGSSPHAEDEEQVHSTGEAAQTAALAVPRTPHPEEEKSPLQVLQEWDTHSALSPHCAAGPWKEDSHIVSAEVGEKCEAIGVKLLHLEDQLLGAMYSHDEALFQSLQGELQTVKETLQAMILQLQPTKEAGEASASYPTAGAQETEA
